Test results reported in US20250325684A1, “POTENT ANTI-CANCER CYCLOTIDES” (University of Southern California, priority 2022, published 2025).
For at least one compound, name, drawing or mass did not settle the structure. Numbered stars: 1 amine (or outer) side, 2 acyl side, 3 side chain; on linkers, the order of the positions; unused ones are H or OH. Bridge positions count the residues as written; N and C are the ends. Square brackets hold non-standard residues; d marks the D form. I, II: the chains in the order shown. X1 = O=C(CCc1cn(CCOCCOCCOCCC(=O)[*:2])nn1)[*:1]; isoGln = NC(=O)[C@H](CCC(=O)[*:2])N[*:1]

Target: T1, RING-mediated Hdm2/HdmX complex (Homo sapiens, UniProt O15151)
T1 construct: made in house
T1 sequence (O15151 428-490 limits assumed): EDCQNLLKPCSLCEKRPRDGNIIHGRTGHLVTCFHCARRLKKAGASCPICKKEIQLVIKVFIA
Test: In vitro inhibition of Hdm2-HdmX complex, FRET competition
Format: binding
Conditions: read-out: IC50, inhibit the formation of the RING-mediated Hdm2/HdmX complex

I: cyclo(ACICRHDSYCGSGSDGGVCPNLYLLCRRDKDCPG) / II: KK[dR]R[dR]G[dR]K[dK]R[dR][isoGln] (disulfide I:2-I:19, I:4-I:26, I:10-I:32; linker I:30-II:N via X1; lactam II:1-II:C) [Cyclotide 52-2-cTAT]
IC50: ~40 nM
